Test results published in doi:10.1101/2021.05.07.442963.
No constants are given. Whether binding was seen depends on the method and setting. In cells and extracts the contact can be indirect. Some results given as binding are weak or reduced against the parent protein; the word gives no strength.

Molecular target: T1, ARS2 (mouse (endogenous in FL5.12.xL)) (UniProt Q99MR6)
T1 sequence: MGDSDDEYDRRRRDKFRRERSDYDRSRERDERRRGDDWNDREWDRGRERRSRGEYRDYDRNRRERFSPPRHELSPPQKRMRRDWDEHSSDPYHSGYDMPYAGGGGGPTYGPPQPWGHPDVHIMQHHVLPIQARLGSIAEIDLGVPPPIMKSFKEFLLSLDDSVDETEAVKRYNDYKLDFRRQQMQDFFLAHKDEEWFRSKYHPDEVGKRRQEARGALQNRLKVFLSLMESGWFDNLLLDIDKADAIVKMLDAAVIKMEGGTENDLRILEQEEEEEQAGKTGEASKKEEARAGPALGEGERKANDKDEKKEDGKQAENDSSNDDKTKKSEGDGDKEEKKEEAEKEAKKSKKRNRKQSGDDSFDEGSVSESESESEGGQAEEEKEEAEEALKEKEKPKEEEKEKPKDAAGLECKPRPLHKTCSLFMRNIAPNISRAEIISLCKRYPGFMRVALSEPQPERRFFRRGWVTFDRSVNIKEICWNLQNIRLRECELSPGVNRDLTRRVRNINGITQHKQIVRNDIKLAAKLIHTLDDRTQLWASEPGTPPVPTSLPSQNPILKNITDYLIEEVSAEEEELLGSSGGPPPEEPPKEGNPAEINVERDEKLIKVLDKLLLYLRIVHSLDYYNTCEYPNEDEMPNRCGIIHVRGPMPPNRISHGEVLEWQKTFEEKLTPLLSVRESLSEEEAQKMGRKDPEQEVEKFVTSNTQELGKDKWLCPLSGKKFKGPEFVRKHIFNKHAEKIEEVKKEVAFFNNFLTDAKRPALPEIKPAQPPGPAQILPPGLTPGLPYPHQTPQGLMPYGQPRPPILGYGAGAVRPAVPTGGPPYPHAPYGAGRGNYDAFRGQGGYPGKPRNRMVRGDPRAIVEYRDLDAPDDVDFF
Test: co-IP

B1: SRSF3 (protein, UniProt P84104 1-164)
chain: MHRDSCPLDCKVYVGNLGNNGNKTELERAFGYYGPLRSVWVARNPPGFAFVEFEDPRDAADAVRELDGRTLCGCRVRVELSNGEKRSRNRGPPPSWGRRPRDDYRRRSPPPRRRSPRRRSFSRSRSRSLSRDRRRERSLSRERNHKPSRSFSRSRSRSRSNERK
binding: binds
